# Measurements: the supplement of paper PMC8104966
# Some of the results follow. Single values are uncertain here, since repeats match poorly.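 Fusion between ACE2-bearing and full-length-spike-bearing U2OS cells was measured by imaging as the percentage of nuclei with both cell types' fluorescent markers. An inhibitory hit is a non-toxic compound whose fusion z-score is below -3, more than three standard deviations beneath the plate's DMSO wells.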
# Test system: U2OS ACE2 x SARS-CoV-2 spike co-culture
# Assay: cell-cell fusion (fraction fused) z-score vs plate DMSO control; higher = more fusion
# Conditions: 30 µM; 5 h; toxicity class: non-toxic, passed QC
row,SMILES,cell-cell fusion (z-score)
1,C[N+](C)(C)C[C@H](O)CC(=O)[O-] [L(-)-Carnitine],inactive: 3.95
2,O=C(Nc1nc2ccccc2n1CCN1CCOCC1)c1cccc([N+](=O)[O-])c1 [IRAK-1/4 Inhibitor I],inactive: 0.493
3,Cc1ccc(C(=O)c2cc(O)c(O)c([N+](=O)[O-])c2)cc1 [Tolcapone],inactive: 1.65
4,CCCCCOC(=O)Nc1nc(=O)n([C@@H]2O[C@H](C)[C@@H](O)[C@H]2O)cc1F [Capecitabine],inactive: 3.32
5,Br.CCSC(=N)N [S-Ethylisothiourea hydrobromide],inactive: 2.53
6,Cn1nnc2c(C(N)=O)ncn2c1=O [Temozolomide],inactive: 0.476
7,C#C[C@]1(OC(C)=O)CCC2C3CCC4=C/C(=N/O)CCC4C3CC[C@@]21CC (stereo partly specified),inactive: 0.09
8,CC1(C)CCC(CN2CCN(c3ccc(C(=O)NS(=O)(=O)c4ccc(NCC5CCOCC5)c([N+](=O)[O-])c4)c(Oc4cnc5[nH]ccc5c4)c3)CC2)=C(c2ccc(Cl)cc2)C1,inactive: 4.83
9,COc1cc2c(cc1OC)C(=O)C(CC1CCN(Cc3ccccc3)CC1)C2.Cl (stereo unspecified) [Donepezil HCl],inactive: 1.62
10,CN(CC[C@@H](Oc1ccc(C(F)(F)F)cc1)c1ccccc1)CC(=O)[O-].[Li+],inactive: 1.91
11,CN(C)CCN(Cc1ccc(Cl)cc1)c1ccccn1.Cl,inactive: 2.55
12,Cl.O=C(c1ccc(OCCN2CCCCC2)cc1)c1c(-c2ccc(O)cc2)sc2cc(O)ccc12 [Evista (Raloxifene Hydrochloride)],inactive: 3.17
13,C=CCn1c(=O)c2cnc(Nc3ccc(N4CCN(C)CC4)cc3)nc2n1-c1cccc(C(C)(C)O)n1,inactive: 1.89
14,CC(=O)Nc1ccc(O)cc1,inactive: 0.876
15,"C[C@]12CC[C@@H](O)C[C@H]1CCc1ccccc12 [3alpha-HYDROXY-4,4-BISNOR-8,11,13-PODOCARPATRIENE]",inactive: 2.58
16,COc1ccccc1N1CCN(CCCNc2cc(=O)n(C)c(=O)n2C)CC1.Cl,inactive: 2.01
17,C[C@]12CCC3c4ccc(O)cc4CCC3C1CCC2=O (stereo partly specified),inactive: 0.444
18,O=c1[nH]cnc2c1ncn2[C@@H]1O[C@H](CO)[C@@H](O)[C@H]1O [Inosine],inactive: 3.42
19,O=c1c(O)c(-c2ccccc2)oc2cc(O)ccc12,inactive: 1.04
20,COc1ccc2c(c1)O[C@@H]1COc3cc(OC)c(OC)cc3[C@@H]1C2=O,inactive: 2.65
21,CC(C)OC(=O)[C@H](C)N[P@](=O)(OC[C@H]1O[C@@H](n2ccc(=O)[nH]c2=O)[C@](C)(F)[C@@H]1O)Oc1ccccc1 [Sofosbuvir],inactive: 2.44
22,CCCCC[C@H](O)/C=C/[C@@H]1[C@@H](C/C=C\CCCC(=O)O)[C@@H](O)C[C@H]1O.NC(CO)(CO)CO [Dinoprost Tromethamine],inactive: 0.927
23,COc1c(-c2ccc3cc(NS(C)(=O)=O)ccc3c2)cc(-n2ccc(=O)[nH]c2=O)cc1C(C)(C)C [Dasabuvir],inactive: -1.38

row,SMILES,cell-cell fusion (z-score)
1,O=C(O)CN(CCOCCOCCN(CC(=O)O)CC(=O)O)CC(=O)O,inactive: 3.64
2,Cl.c1ccc([C@H]2CN3CCSC3=N2)cc1 [(-)-Tetramisole hydrochloride],inactive: 3.17
3,Cl.c1ccc([C@H]2CN3CCSC3=N2)cc1,inactive: 2.13
4,COC(=O)c1c(C)cc(O)cc1O,inactive: 1.91
5,NC(=O)c1cc[n+](CC2=C(C(=O)[O-])N3C(=O)[C@@H](NC(=O)[C@@H](c4ccccc4)S(=O)(=O)[O-])[C@H]3SC2)cc1.[Na+] [Cefsulodin sodium salt hydrate],inactive: 0.605
6,CN1CCc2c(c3ccccc3n2Cc2ccccc2)C1,inactive: -0.252
7,Clc1ccc(CO/N=C(\Cn2ccnc2)c2ccc(Cl)cc2Cl)c(Cl)c1.O=[N+]([O-])O [Oxiconazole nitrate],active: -7.37
8,CC(C)(/N=N/C(C)(C)C(=N)N)C(=N)N.Cl.Cl,inactive: 1.5
9,O=c1cc(O)cc(/C=C/c2ccc(O)c(O)c2)o1 [Hispidin],inactive: 4.29
10,CCN1CCN(c2cc3c(cc2F)c(=O)c(C(=O)O)cn3C2CC2)CC1,inactive: 4.35
11,CCC(CCC(C)[C@H]1CCC2C3CC=C4C[C@@H](OC(C)=O)CC[C@]4(C)C3CC[C@@]21C)C(C)C (stereo partly specified),inactive: 2.44
12,C[N+](C)([O-])CCNc1ccc(NCC[N+](C)(C)[O-])c2c1C(=O)c1c(O)ccc(O)c1C2=O.Cl.Cl [Banoxantrone dihydrochloride],inactive: 2.23
13,CCCc1nc2c(C)cc(-c3nc4ccccc4n3C)cc2n1Cc1ccc(-c2ccccc2C(=O)O)cc1,inactive: 4.13
14,Nc1cc(C(F)(F)F)c(-c2cc(N3CCOCC3)nc(N3CCOCC3)n2)cn1,inactive: 1.76
15,CCCCOC(=O)c1ccc(N)cc1,inactive: 0.527
16,CCCN1CCC[C@@H]2Cc3nc(N)ncc3C[C@H]21.Cl.Cl [Quinelorane dihydrochloride],inactive: 0.0655
17,COc1ccc2c(c1OC)C(=O)O[C@@H]2[C@H]1c2cc3c(cc2CCN1C)OCO3,inactive: 3.14
18,CC1=Nc2ccc(Cl)cc2S(=O)(=O)N1,inactive: 6.05
19,CC(C)NC[C@H](O)COc1cccc2ccccc12.Cl [(S)-Propranolol hydrochloride],inactive: 1.28
20,Cc1c(NC(C)C)c(=O)n(-c2ccccc2)n1C.Cl,inactive: 1.54
21,NC(N)=Nc1nc(CSCC/C(N)=N\S(N)(=O)=O)cs1 [Famotidine],inactive: 2.86
22,CCCCNC(=O)NS(=O)(=O)c1ccc(C)cc1,inactive: 4.01
23,CCCCNC(=O)NS(=O)(=O)c1ccc(C)cc1 [Tolbutamide],inactive: 1.64

# Part of the list above, bar-delimited:
row | SMILES | cell-cell fusion (z-score)
3 | Cl.c1ccc([C@H]2CN3CCSC3=N2)cc1 | inactive: 2.13
9 | O=c1cc(O)cc(/C=C/c2ccc(O)c(O)c2)o1 [Hispidin] | inactive: 4.29
12 | C[N+](C)([O-])CCNc1ccc(NCC[N+](C)(C)[O-])c2c1C(=O)c1c(O)ccc(O)c1C2=O.Cl.Cl [Banoxantrone dihydrochloride] | inactive: 2.23
